These are yes or no findings as the source states them, for the method shown. In cells and extracts the contact can be indirect. These calls come from enrichment with a bait or labelling near it, and not all partners need be listed.
Molecular target: T1, O‐GlcNAc transferase (OGT), endogenous (human (endogenous in MCF10A)) (UniProt O15294)
T1 sequence: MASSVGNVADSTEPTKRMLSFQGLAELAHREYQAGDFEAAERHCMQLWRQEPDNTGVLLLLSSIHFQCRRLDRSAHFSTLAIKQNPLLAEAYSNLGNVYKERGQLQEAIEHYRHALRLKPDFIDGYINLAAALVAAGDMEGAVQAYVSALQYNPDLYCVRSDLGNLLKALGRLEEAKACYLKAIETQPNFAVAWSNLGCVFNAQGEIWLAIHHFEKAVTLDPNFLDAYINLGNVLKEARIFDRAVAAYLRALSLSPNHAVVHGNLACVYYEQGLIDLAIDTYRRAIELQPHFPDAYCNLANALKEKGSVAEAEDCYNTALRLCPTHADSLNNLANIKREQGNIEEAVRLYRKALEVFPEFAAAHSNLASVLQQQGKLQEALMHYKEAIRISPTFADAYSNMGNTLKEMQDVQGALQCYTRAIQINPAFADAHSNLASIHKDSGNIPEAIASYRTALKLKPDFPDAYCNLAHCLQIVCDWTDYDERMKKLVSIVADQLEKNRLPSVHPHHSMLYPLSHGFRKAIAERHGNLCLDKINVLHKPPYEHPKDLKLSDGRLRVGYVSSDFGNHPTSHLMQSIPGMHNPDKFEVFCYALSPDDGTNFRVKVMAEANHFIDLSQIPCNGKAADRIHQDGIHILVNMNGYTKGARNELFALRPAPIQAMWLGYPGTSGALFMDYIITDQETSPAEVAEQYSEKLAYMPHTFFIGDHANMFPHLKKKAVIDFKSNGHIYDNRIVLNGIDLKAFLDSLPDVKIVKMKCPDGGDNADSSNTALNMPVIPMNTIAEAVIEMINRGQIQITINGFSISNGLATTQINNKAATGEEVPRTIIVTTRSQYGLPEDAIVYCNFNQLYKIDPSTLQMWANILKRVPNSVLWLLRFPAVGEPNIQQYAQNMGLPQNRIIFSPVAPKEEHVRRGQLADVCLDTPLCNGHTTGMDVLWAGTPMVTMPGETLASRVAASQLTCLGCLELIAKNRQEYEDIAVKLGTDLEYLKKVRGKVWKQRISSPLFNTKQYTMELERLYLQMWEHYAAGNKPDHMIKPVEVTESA
Assay: affinity purification with mass spectrometry; anti-OGT antibody used to immunoprecipitate endogenous OGT from MCF10A cell lysate; SDS-PAGE, Coomassie staining, tandem mass spectrometry

B1: centrosomal protein 131 (CEP131), endogenous (protein, UniProt Q9UPN4 1-1083)
chain: MKGTRAIGSVPERSPAGVDLSLTGLPPPVSRRPGSAATTKPIVRSVSVVTGSEQKRKVLEATGPGGSQAINNLRRSNSTTQVSQPRSGSPRPTEPTDFLMLFEGSPSGKKRPASLSTAPSEKGATWNVLDDQPRGFTLPSNARSSSALDSPAGPRRKECTVALAPNFTANNRSNKGAVGNCVTTMVHNRYTPSERAPPLKSSNQTAPSLNNIIKAATCEGSESSGFGKLPKNVSSATHSARNNTGGSTGLPRRKEVTEEEAERFIHQVNQATVTIQRWYRHQVQRRGAGAARLEHLLQAKREEQRQRSGEGTLLDLHQQKEAARRKAREEKARQARRAAIQELQQKRALRAQKASTAERGPPENPRETRVPGMRQPAQELSPTPGGTAHQALKANNTGGGLPAAGPGDRCLPTSDSSPEPQQPPEDRTQDVLAQDAAGDNLEMMAPSRGSAKSRGPLEELLHTLQLLEKEPDVLPRPRTHHRGRYAWASEVTTEDDASSLTADNLEKFGKLSAFPEPPEDGTLLSEAKLQSIMSFLDEMEKSGQDQLDSQQEGWVPEAGPGPLELGSEVSTSVMRLKLEVEEKKQAMLLLQRALAQQRDLTARRVKETEKALSRQLQRQREHYEATIQRHLAFIDQLIEDKKVLSEKCEAVVAELKQEDQRCTERVAQAQAQHELEIKKLKELMSATEKARREKWISEKTKKIKEVTVRGLEPEIQKLIARHKQEVRRLKSLHEAELLQSDERASQRCLRQAEELREQLEREKEALGQQERERARQRFQQHLEQEQWALQQQRQRLYSEVAEERERLGQQAARQRAELEELRQQLEESSSALTRALRAEFEKGREEQERRHQMELNTLKQQLELERQAWEAGRTRKEEAWLLNREQELREEIRKGRDKEIELVIHRLEADMALAKEESEKAAESRIKRLRDKYEAELSELEQSERKLQERCSELKGQLGEAEGENLRLQGLVRQKERALEDAQAVNEQLSSERSNLAQVIRQEFEDRLAASEEETRQAKAELATLQARQQLELEEVHRRVKTALARKEEAVSSLRTQHEAAVKRADHLEELLEQHRRPTPSTK
B1 was tested, and the binding was “binds”.

— article PMC10754140
